From the supplement of paper PMC10331698
± gives the standard deviation of the averaged measurements. Most values lie at the level of the controls, where differences are scatter.

Columns and labels:
Assay in all cases: level (log10 ratio to DMSO vehicle control); higher = higher biomarker level / cell amount than vehicle control
[1] = compound: C=C(C)C(=O)OCCC(F)(F)C(F)(F)C(F)(F)C(F)(F)C(F)(F)C(F)(F)C(F)(F)C(F)(F)F [8:2 Fluorotelomer methacrylate]; details: in DMSO
Method: (§1)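 BioMAP Diversity Plus panel of 12 human primary cell co-culture systems (3C, 4H, LPS, SAg, BT, BF4T, BE3C, CASM3C, HDF3CGF, KF3CT, MyoF, Mphg). Compounds were added 1 h before stimulation and left for 24 h (MyoF 48 h; BT 72 h for soluble read-outs or 6 d for IgG). Biomarkers were read by ELISA, cytotoxicity by SRB, PBMC viability and proliferation by Alamar Blue. Each well value was divided by the mean of 8 DMSO control wells on the same plate and log10 transformed; duplicate blinded samples were tested at 4 concentrations.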

[2] = compound: NC(=O)C(F)(F)C(F)(F)C(F)(F)C(F)(F)C(N)=O [Octafluoroadipamide]; details: 2200 nM; in DMSO
Method: as §1

[3] = compound: COC(=O)CCC(F)(F)C(F)(F)C(F)(F)C(F)(F)F [Methyl 2H,2H,3H,3H-perfluoroheptanoate]; details: 2200 nM; in DMSO
Method: as §1

[4] = compound: O=C(O)CCC(F)(F)C(F)(F)C(F)(F)C(F)(F)C(F)(F)F [2H,2H,3H,3H-Perfluorooctanoic acid]; details: 2200 nM; in DMSO
Method: as §1

[5] = compound: FC(F)(F)C(F)(F)C(F)(F)C(F)(F)C(F)(F)CCI [1-Iodo-1H,1H,2H,2H-perfluoroheptane]; details: 2200 nM; in DMSO
Method: as §1

[6] = compound: NC(=O)C(F)(F)C(F)(F)C(F)(F)C(F)(F)F [Nonafluoropentanamide]; details: 2200 nM; in DMSO
Method: as §1

[7] = compound: C=C(C)C(=O)OCCC(F)(F)C(F)(F)C(F)(F)C(F)(F)C(F)(C(F)(F)F)C(F)(F)F [(Perfluoro-5-methylhexyl)ethyl 2-methylprop-2-enoate]; details: in DMSO
Method: as §1

[8] = compound: OC(C(F)(F)F)(C(F)(F)F)C(O)(C(F)(F)F)C(F)(F)F [Perfluoropinacol]; details: in DMSO
Method: as §1

[9] = compound: O=S(=O)(O)CCC(F)(F)C(F)(F)C(F)(F)C(F)(F)C(F)(F)C(F)(F)F [6:2 Fluorotelomer sulfonic acid]; details: in DMSO
Method: as §1

[10] = compound: NS(=O)(=O)C(F)(F)C(F)(F)C(F)(F)C(F)(F)C(F)(F)C(F)(F)F [Perfluorohexanesulfonamide]; details: 2200 nM; in DMSO
Method: as §1

[11] = compound: O=C(O)C(F)(F)C(F)(F)C(F)(F)C(F)(F)C(F)(F)C(F)(F)C(F)(F)C(F)(F)Cl [9-Chloro-perfluorononanoic acid]; details: in DMSO
Method: as §1

[12] = compound: O=S(=O)(O)C(F)(F)C(F)(F)OC(F)(F)C(F)(F)F [Perfluoro(2-ethoxyethane)sulfonic acid]; details: 2200 nM; in DMSO
Method: as §1

[13] = compound: O=C(O)C(F)(F)C(F)(F)C(=O)O [Tetrafluorosuccinic acid]; details: 2200 nM; in DMSO
Method: as §1

[14] = compound: OCCC(F)(F)C(F)(F)C(F)(F)C(F)(F)F [4:2 Fluorotelomer alcohol]; details: 2200 nM; in DMSO
Method: as §1

| Test System | level (log10) ([1]; 740 nM) | level (log10) ([1]; 2200 nM) | level (log10) [2] | level (log10) [3] | level (log10) [4] | level (log10) [5] | level (log10) [6] | level (log10) ([7]; 740 nM) | level (log10) ([7]; 2200 nM) | level (log10) ([7]; 6700 nM) | level (log10) ([7]; 20000 nM) | level (log10) ([8]; 2200 nM) | level (log10) ([8]; 6700 nM) | level (log10) ([8]; 20000 nM) | level (log10) ([9]; 2200 nM) | level (log10) ([9]; 6700 nM) | level (log10) ([9]; 20000 nM) | level (log10) ([9]; 60000 nM) | level (log10) [10] | level (log10) ([11]; 2200 nM) | level (log10) ([11]; 6700 nM) | level (log10) ([11]; 20000 nM) | level (log10) [12] | level (log10) [13] | level (log10) [14] |
| --- | --- | --- | --- | --- | --- | --- | --- | --- | --- | --- | --- | --- | --- | --- | --- | --- | --- | --- | --- | --- | --- | --- | --- | --- | --- |
| BE3C:CXCL8/IL-8 | -0.005 ± 0.04 | -0.006 ± 0.038 | -0.0315 ± 0.039 | 0.0435 ± 0.005 | 0.0105 ± 0.037 | 0.024 ± 0.065 | 0.0235 ± 0.025 | 0.0255 ± 0.047 | 0.012 ± 0.041 | -0.0065 ± 0.0092 | -0.008 ± 0.024 | 0.0165 ± 0.0078 | -0.049 ± 0.0014 | -0.203 ± 0.021 | 0.009 ± 0.027 | 0.021 ± 0.031 | -0.001 ± 0.021 | 0 ± 0.021 | -0.0135 ± 0.005 | 0.0125 ± 0.061 | 0.0025 ± 0.025 | -0.102 ± 0.049 | 0.0135 ± 0.026 | 0.0455 ± 0.074 | -0.0115 ± 0.035 |
| BE3C:CXCL11/I-TAC | 0.014 ± 0.082 | 0.001 ± 0.052 | 0.0155 ± 0.016 | -0.01 ± 0.0042 | -0.0045 ± 0.047 | 0.01 ± 0.023 | 0.015 ± 0.0099 | 0.018 ± 0.013 | 0.0135 ± 0.013 | 0.005 ± 0.0099 | 0.0105 ± 0.0092 | -0.001 ± 0.0014 | 0.0435 ± 0.00071 | 0.0115 ± 0.021 | 0.0305 ± 0.036 | 0.037 ± 0.028 | 0.0585 ± 0.00071 | 0.067 ± 0.018 | 0.0095 ± 0.056 | 0.0185 ± 0.067 | 0.0515 ± 0.005 | -0.161 ± 0.032 | 0.0215 ± 0.00071 | -0.0115 ± 0.011 | 0.0155 ± 0.013 |
| 4H:CD87/uPAR | -0.02 ± 0.058 | -0.0375 ± 0.056 | -0.022 ± 0.04 | -0.003 ± 0.0099 | 0.0095 ± 0.021 | 0.0275 ± 0.022 | 0.0135 ± 0.022 | -0.001 ± 0.04 | -0.0005 ± 0.0092 | 0.0115 ± 0.037 | 0 ± 0.0071 | -0.0385 ± 0.021 | -0.117 ± 0.022 | -0.226 ± 0.029 | -0.0115 ± 0.021 | -0.0005 ± 0.029 | 0.001 ± 0.031 | -0.002 ± 0.04 | 0 ± 0.045 | 0.0145 ± 0.05 | 0.0055 ± 0.033 | 0.002 ± 0.0099 | 0.0145 ± 0.028 | -0.034 ± 0.072 | 0.0015 ± 0.025 |
| HDF3CGF:CD54/ICAM-1 | -0.0105 ± 0.04 | 0.001 ± 0.021 | 0.0165 ± 0.023 | -0.008 ± 0.0099 | 0.0065 ± 0.012 | 0.0005 ± 0.0064 | -0.0085 ± 0.00071 | -0.003 | 0.001 ± 0.0099 | 0.0005 ± 0.016 | -0.0045 ± 0.026 | -0.006 ± 0.011 | 0.012 ± 0.011 | 0.005 ± 0.018 | -0.001 ± 0.0099 | -0.0085 ± 0.011 | -0.007 ± 0.011 | -0.029 ± 0.014 | -0.001 ± 0.0028 | -0.036 ± 0.021 | -0.077 ± 0.017 | -0.112 ± 0.014 | 0.006 ± 0.023 | -0.011 ± 0.0042 | 0.004 ± 0.0099 |
| HDF3CGF:MMP-1 | 0.0055 ± 0.019 | 0.01 ± 0.0014 | 0.002 ± 0.0057 | -0.0075 ± 0.0078 | -0.026 ± 0.016 | 0.0225 ± 0.00071 | 0.005 ± 0.0014 | 0.002 ± 0.024 | 0.013 ± 0.013 | 0.002 ± 0.0085 | 0.008 ± 0.018 | 0.004 ± 0.042 | 0.024 ± 0.023 | 0.017 ± 0.014 | -0.0075 ± 0.043 | -0.015 ± 0.027 | -0.039 ± 0.03 | -0.036 ± 0.064 | -0.0155 ± 0.021 | -0.058 ± 0.016 | -0.0875 ± 0.005 | -0.118 ± 0.011 | -0.0185 ± 0.03 | 0.0205 ± 0.013 | -0.02 ± 0.018 |
| HDF3CGF:CD106/VCAM-1 | -0.047 ± 0.028 | -0.023 ± 0.034 | -0.0225 ± 0.029 | -0.046 ± 0.013 | 0.027 ± 0.11 | -0.029 ± 0.038 | -0.009 ± 0.0057 | 0.0015 ± 0.0021 | 0.017 ± 0.011 | 0.02 ± 0.023 | -0.0275 ± 0.011 | -0.0455 ± 0.1 | -0.089 ± 0.037 | -0.228 ± 0.0014 | 0.021 ± 0.1 | 0.034 ± 0.11 | 0.034 ± 0.093 | 0.0135 ± 0.064 | -0.0295 ± 0.069 | -0.0075 ± 0.043 | -0.0005 ± 0.074 | -0.067 ± 0.096 | -0.0015 ± 0.037 | 0.029 ± 0.048 | -0.043 ± 0.03 |
| lMphg:CD69 | 0.005 ± 0.057 | -0.038 ± 0.025 | -0.0055 ± 0.086 | -0.0065 ± 0.042 | -0.004 ± 0.062 | -0.019 ± 0.058 | -0.004 ± 0.0057 | -0.0495 ± 0.11 | -0.052 ± 0.071 | -0.064 ± 0.082 | -0.0825 ± 0.08 | -0.071 ± 0.0014 | -0.124 ± 0.026 | -0.256 ± 0.058 | -0.039 ± 0.041 | -0.034 ± 0.04 | -0.065 ± 0.054 | -0.073 ± 0.025 | -0.005 ± 0.021 | -0.031 ± 0.0085 | -0.049 ± 0.024 | -0.053 ± 0.016 | -0.011 ± 0.062 | 0.0085 ± 0.067 | -0.01 ± 0.044 |
| LPS:CD106/VCAM-1 | 0.001 ± 0.031 | -0.012 ± 0.02 | -0.0165 ± 0.013 | -0.016 ± 0.027 | 0.016 ± 0.017 | -0.0005 ± 0.0092 | -0.0095 ± 0.0064 | 0.0025 ± 0.035 | 0.0305 ± 0.026 | 0.0045 ± 0.016 | -0.003 ± 0.035 | 0.0085 ± 0.021 | 0.0045 ± 0.013 | -0.0825 ± 0.015 | 0.0115 ± 0.073 | -0.0055 ± 0.067 | -0.0005 ± 0.074 | 0.0115 ± 0.042 | -0.0345 ± 0.04 | -0.002 ± 0.052 | -0.008 ± 0.045 | 0.003 ± 0.037 | 0.0275 ± 0.04 | -0.0105 ± 0.0064 | -0.015 ± 0.0085 |
| lMphg:CD62E/E-Selectin | -0.028 ± 0.0014 | -0.0145 ± 0.052 | 0.012 ± 0.0071 | -0.019 ± 0.016 | 0.003 ± 0.025 | -0.027 ± 0.027 | 0.0235 ± 0.033 | 0.0175 ± 0.013 | 0.0235 ± 0.005 | -0.0135 ± 0.011 | -0.01 ± 0.017 | 0.0225 ± 0.035 | 0.0515 ± 0.013 | -0.139 ± 0.018 | -0.013 ± 0.045 | -0.0225 ± 0.018 | -0.039 ± 0.0071 | 0 ± 0.023 | -0.0065 ± 0.033 | -0.0295 ± 0.005 | 0.01 ± 0.0099 | 0.017 ± 0.0042 | -0.012 ± 0.011 | -0.019 ± 0.089 | -0.0075 ± 0.042 |
| lMphg:CCL2/MCP-1 | 0.013 ± 0.041 | -0.01 ± 0.023 | -0.004 ± 0.03 | 0.0115 ± 0.042 | 0 ± 0.0014 | -0.019 ± 0.033 | 0.0005 ± 0.0064 | 0.001 ± 0.04 | 0.0035 ± 0.036 | 0.014 ± 0.0099 | 0.0175 ± 0.037 | 0.0235 ± 0.052 | 0.0265 ± 0.028 | -0.148 ± 0.0014 | -0.001 ± 0.0071 | -0.0195 ± 0.012 | -0.005 ± 0.0099 | 0.027 ± 0.025 | -0.0075 ± 0.015 | 0.0045 ± 0.046 | 0.008 ± 0.047 | 0.0025 ± 0.015 | -0.008 ± 0.041 | 0.0055 ± 0.026 | -0.0215 ± 0.012 |

Taken from the entries so far (2 entries):

| Test System | level (log10) ([1]; 740 nM) | level (log10) ([1]; 2200 nM) | level (log10) [2] | level (log10) [3] | level (log10) [4] | level (log10) [5] | level (log10) [6] | level (log10) ([7]; 740 nM) | level (log10) ([7]; 2200 nM) | level (log10) ([7]; 6700 nM) | level (log10) ([7]; 20000 nM) | level (log10) ([8]; 2200 nM) | level (log10) ([8]; 6700 nM) | level (log10) ([8]; 20000 nM) | level (log10) ([9]; 2200 nM) | level (log10) ([9]; 6700 nM) | level (log10) ([9]; 20000 nM) | level (log10) ([9]; 60000 nM) | level (log10) [10] | level (log10) ([11]; 2200 nM) | level (log10) ([11]; 6700 nM) | level (log10) ([11]; 20000 nM) | level (log10) [12] | level (log10) [13] | level (log10) [14] |
| --- | --- | --- | --- | --- | --- | --- | --- | --- | --- | --- | --- | --- | --- | --- | --- | --- | --- | --- | --- | --- | --- | --- | --- | --- | --- |
| LPS:CD106/VCAM-1 | 0.001 ± 0.031 | -0.012 ± 0.02 | -0.0165 ± 0.013 | -0.016 ± 0.027 | 0.016 ± 0.017 | -0.0005 ± 0.0092 | -0.0095 ± 0.0064 | 0.0025 ± 0.035 | 0.0305 ± 0.026 | 0.0045 ± 0.016 | -0.003 ± 0.035 | 0.0085 ± 0.021 | 0.0045 ± 0.013 | -0.0825 ± 0.015 | 0.0115 ± 0.073 | -0.0055 ± 0.067 | -0.0005 ± 0.074 | 0.0115 ± 0.042 | -0.0345 ± 0.04 | -0.002 ± 0.052 | -0.008 ± 0.045 | 0.003 ± 0.037 | 0.0275 ± 0.04 | -0.0105 ± 0.0064 | -0.015 ± 0.0085 |
| lMphg:CD62E/E-Selectin | -0.028 ± 0.0014 | -0.0145 ± 0.052 | 0.012 ± 0.0071 | -0.019 ± 0.016 | 0.003 ± 0.025 | -0.027 ± 0.027 | 0.0235 ± 0.033 | 0.0175 ± 0.013 | 0.0235 ± 0.005 | -0.0135 ± 0.011 | -0.01 ± 0.017 | 0.0225 ± 0.035 | 0.0515 ± 0.013 | -0.139 ± 0.018 | -0.013 ± 0.045 | -0.0225 ± 0.018 | -0.039 ± 0.0071 | 0 ± 0.023 | -0.0065 ± 0.033 | -0.0295 ± 0.005 | 0.01 ± 0.0099 | 0.017 ± 0.0042 | -0.012 ± 0.011 | -0.019 ± 0.089 | -0.0075 ± 0.042 |
